{"source": "patent US20080312162A1", "about": "“Methods and Compositions for Enzyme-Specific Activation of Carbohydrate-Conjugated Prodrugs” (THE OHIO STATE UNIVERSITY, priority 2004, published 2008)", "tested_on": "SW620, HT29 and K562", "test": "Beta-galactosidase cleavage assay", "format": "cell-based, human", "conditions": "for Effect of beta-galactosidase treatment on activity: 2 units beta-galactosidase; for Activity after cleavage by galactosidase compared with GA: after beta-galactosidase cleavage", "method": "Thus, galactose-GA and lactose-GA conjugates were exposed to beta-galactosidase and observed for enhancement of anticancer activities. […] For compounds 25-29, 1 μM concentration of prodrug compounds were used. GA (0.01 μM), compound 24 (0.1 μM) and beta-galactosidase (2 units) was used in the cell culture. Each bar in the graphs shown is the average of three experiments. Relative percentage of cell growth was calculated compared to control cells in the absence of beta-galactosidase and drug solution. Cell lines SW620, HT29 and K562 were exposed to 2 units of beta-galactosidase and then treated individually with 1 μM of compounds 25-29. At this concentration, galactose-geldanamycin conjugates alone were relatively devoid of anticancer activity.\nBeta-galactosidase cleavage assay. Cells (2,000-10,000) were seeded in 96 well plates in RPMI-1640 and incubated for 24 hours. The exponentially growing cancer cells were incubated with 2 units of beta-galactosidase for 10 minutes. The same concentration solutions of various compounds (25-29) were added to each well. The control cells were exposed to fresh medium only or to beta-galactosidase alone. After incubated for 72 hours at 37° C. (5% CO2, 100% humidity), the cell growth was measured with MTS assay as described above. The percentages of cell growth of tested compounds vs. control were calculated by measuring the absorbance at 490 nm.", "note": "At least one compound was matched to its structure with a doubt left. Some of these results come from one statement about several compounds together.", "data": [{"smiles": "COC1=C2C[C@@H](C)C[C@H](OC)[C@H](O)[C@@H](C)/C=C(\\C)[C@H](OC(N)=O)[C@@H](OC)/C=C\\C=C(/C)C(=O)NC(=CC1=O)C2=O", "note": "[GA, Geldanamycin, reference compound]", "values": [{"measurement": "Effect of beta-galactosidase treatment on activity", "value": "did not affect biological activity"}]}, {"smiles": "COC1C=CC=C(C)C(=O)NC2=CC(=O)C(NCCOC3OC(CO)C(O)C(O)C3O)=C(CC(C)CC(OC)C(O)C(C)C=C(C)C1OC(N)=O)C2=O", "note": "(stereo not drawn) [compound 25, 17-demethoxy-17-[(2-β-galactopyranosylethyl)amino]geldanamycin]", "values": [{"measurement": "Effect of beta-galactosidase treatment on activity", "value": "dramatically increased"}, {"measurement": "Activity after cleavage by galactosidase compared with GA", "value": "nearly the same activity as GA"}]}, {"smiles": "COC1C=CC=C(C)C(=O)NC2=CC(=O)C(NCCOCCOC3OC(CO)C(O)C(O)C3O)=C(CC(C)CC(OC)C(O)C(C)C=C(C)C1OC(N)=O)C2=O", "note": "(stereo not drawn) [compound 28, 17-demethoxy-17-{[2-(2-β-galactopyranosylethyl)ethyl]amino}geldanamycin]", "values": [{"measurement": "Effect of beta-galactosidase treatment on activity", "value": "dramatically increased"}, {"measurement": "Activity after cleavage by galactosidase compared with GA", "value": "nearly the same activity as GA"}]}]}
